Data taken from patent US20230102344A1.
These are yes or no findings as the source states them, for the method shown. Binding calls can cover weak binding; strength is not graded here.

Biological target: TCRvβ 6-5 expressed on cells (TCRvβ 6-5+ Jurkat cells; human T cells) (human)
Assay: flow cytometry on TCRvβ 6-5+ Jurkat cells, detection with anti-human Fc-AF647

binding: binds
B1: BJM0387 (bispecific antibody, not shown: a dimerising Fc or GST; large carriers)
heavy: QVQLVQSGAEVKKPGSSVKVSCKASGYSFTTYYIHWVRQAPGQGLEWMGWFFPGSGNIKYNEKFKGRVTITADTSTSTAYMELSSLRSEDTAVYYCAGSYYSYDVLDYWGQGTTVTVSSGGGGSGGGGSGGGGSGGGGSDIQMTQSPSFLSASVGDRVTITCKASQNVGINVVWHQQKPGKAPKALIYSSSHRYSGVPSRFSGSGSGTEFTLTISSLQPEDFATYFCQQFKSYPLTFGQGTKLEIKGGGGSQVQLVQSGAEVKKPGSSVKVSCKASGYTFTDYNMHWVRQAPGQGLEWIGYIYPYNGGTGYNQKFKSKATITADESTNTAYMELSSLRSEDTAVYYCARGRPAMDYWGQGTLVTVSS
light: DIQMTQSPSSLSASVGDRVTITCRASESVDNYGISFMNWFQQKPGKAPKLLIYAASNQGSGVPSRFSGSGSGTDFTLTISSLQPDDFATYYCQQSKEVPWTFGQGTKVEIK
